In publication PMC10781680:

biological target: T1, PHLPP2 (endogenous) (human (endogenous in HepG2)) (UniProt Q6ZVD8); experiment: co-IP; HepG2 cells transfected with Myc-tagged TRIM22 Wt or Muts (ΔRING, ΔBBox, ΔCC, ΔSPRY); IP (antibody not told) and Western blot
T1 sequence: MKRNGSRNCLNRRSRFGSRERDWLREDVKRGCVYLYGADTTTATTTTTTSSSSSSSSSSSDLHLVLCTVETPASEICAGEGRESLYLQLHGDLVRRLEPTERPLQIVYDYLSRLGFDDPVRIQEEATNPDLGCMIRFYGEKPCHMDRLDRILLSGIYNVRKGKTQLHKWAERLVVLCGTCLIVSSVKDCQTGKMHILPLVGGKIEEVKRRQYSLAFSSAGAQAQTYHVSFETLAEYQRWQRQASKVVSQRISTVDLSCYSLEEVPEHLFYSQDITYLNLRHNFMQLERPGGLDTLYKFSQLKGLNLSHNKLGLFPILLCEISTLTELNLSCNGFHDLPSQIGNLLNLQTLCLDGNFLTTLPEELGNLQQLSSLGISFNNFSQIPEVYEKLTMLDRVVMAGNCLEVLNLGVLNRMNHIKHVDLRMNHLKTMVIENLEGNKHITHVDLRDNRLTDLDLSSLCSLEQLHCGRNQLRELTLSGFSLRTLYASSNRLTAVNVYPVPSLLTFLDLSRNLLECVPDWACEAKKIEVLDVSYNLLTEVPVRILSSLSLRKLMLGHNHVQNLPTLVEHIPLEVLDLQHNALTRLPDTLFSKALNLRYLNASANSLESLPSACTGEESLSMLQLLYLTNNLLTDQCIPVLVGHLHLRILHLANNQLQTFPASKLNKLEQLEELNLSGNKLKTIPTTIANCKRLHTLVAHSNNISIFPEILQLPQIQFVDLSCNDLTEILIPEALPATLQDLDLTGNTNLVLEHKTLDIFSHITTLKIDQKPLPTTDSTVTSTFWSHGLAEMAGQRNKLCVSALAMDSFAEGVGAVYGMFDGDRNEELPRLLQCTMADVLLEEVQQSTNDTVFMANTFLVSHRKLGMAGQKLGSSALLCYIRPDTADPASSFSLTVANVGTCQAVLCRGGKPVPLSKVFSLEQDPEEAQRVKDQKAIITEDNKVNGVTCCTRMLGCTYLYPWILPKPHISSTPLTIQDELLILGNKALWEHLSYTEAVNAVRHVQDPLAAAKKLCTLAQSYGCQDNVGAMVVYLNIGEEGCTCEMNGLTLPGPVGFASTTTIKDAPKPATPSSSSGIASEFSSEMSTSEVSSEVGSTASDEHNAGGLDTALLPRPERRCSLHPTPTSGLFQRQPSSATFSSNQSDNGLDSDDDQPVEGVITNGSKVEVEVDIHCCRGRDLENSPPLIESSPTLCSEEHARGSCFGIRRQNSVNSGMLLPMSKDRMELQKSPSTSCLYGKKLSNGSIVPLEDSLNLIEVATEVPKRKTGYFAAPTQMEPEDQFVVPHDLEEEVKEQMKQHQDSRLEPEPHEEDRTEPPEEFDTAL

binding, binds:
TRIM22 ΔBBox (Myc-tagged) (domain or fragment)
TRIM22 ΔCC (Myc-tagged) (domain or fragment)
TRIM22 ΔRING (Myc-tagged) (domain or fragment)

No constants are given. Whether binding was seen depends on the method and setting. Binding seen in cells or lysates may run through a third protein. Binding can be weak; no strength is given.
